This note sets out measurements from patent US20260365855A1, “TARGETED QUINOCYANINE DYES FOR THE INTRAOPERATIVE DELINEATION OF CANCER MARGINS” (THE TRUSTEES OF THE UNIVERSITY OF PENNSYLVANIA, priority 2022, published 2026).

The data set can be described thus: Depth penetration comparisons of compound 1 vs. JAS239 and ICG through chicken breast tissue. The note with it: chicken breast tissue 1-3 mm. Here is the method:
Depth Penetration Comparisons of Compound 1 vs. JAS239 and ICG.
Compound 1, JAS239, and ICG were diluted in DMSO and placed in a 96-well black-well clear-bottom plate at concentrations from 0.1 μM to 100 μM. The plate was then imaged using the PhotonEtc IR Vivo using the NIR-II emission filter with excitation at 760, 808, 890, or 940 nm. Wells were then covered with thinly sliced raw chicken breast tissue from 1 mm to 3 mm thick. Imaging was then repeated for each tissue thickness.
Chicken breast tissue was layered over wells containing varying concentrations of each fluorophore in 1 mm sections. Fluorescence in the NIR-II window was measured following excitation at 760, 808, 890, and 940 nm. […] Tissue scattering, absorption, and autofluorescence decreases at increasing wavelengths of light. Thus, the improved resolution of compound 1 with increasing wavelength of excitation laser likely resulted from improved tissue penetration of the excitation laser. Compound 1 has a maximum absorption at 970 nm resulting in strong excitation of the probe and fluorescence conversion.

As to `CCN1C=C/C(=C/C=C2\CCCC(/C=C/c3cc[n+](CC)c4ccccc34)=C2Cl)c2ccccc21.[I-]` [compound 1, 4-((E)-2((E)-2-chloro-3-(2-((Z)-J-ethylquinolin-4(JH)-ylidene)-ethylidene)cyclohex-1-en-1-yl)vinyl)-J-ethylquinolin-1-ium iodide], the “tissue depth up to which strong emission / resolvable signal is observed” value is listed as “up to 3 mm”.
